The assay is described as follows: qHTS Assay to Find Inhibitors of Chronic Active B-Cell Receptor Signaling. As to conditions: ABC-DLBCL IkBa-CBG/CBR reporter, luminescence ratio (green luciferase fused to IkBa over red control in TMD8 lymphoma cells), 4 h. The procedure, abridged:
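Compounds up to 46 uM were incubated four hours with TMD8 cells whose green CBG68 luciferase is fused to IkappaBalpha; red CBR luminescence normalised the signal, and concentration-effect curves were fitted to fusion, red and ratio data.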

The mark [1] stands for this setting: measured here: CBR red luminescence, cell number.
Where [2] appears, read: measured here: IkBa-CBG green luminescence.

The other results are listed elsewhere or left out. Further columns of the screen follow, without active or inactive calls. The list favours compounds with an active or inconclusive main result. Words in brackets tell the shape of the fitted curve; partial curves, single points and poor fits give uncertain potencies.

On to `Cc1cc(C)cc(C(=O)Nc2nc3ccccc3[nH]2)c1`, for which the concentration at half-maximal activity (AC50) under setting [1] is 2 µM [falling, full curve].

Regarding `CNC(=O)c1ccccc1NC(=O)c1c(O)c2c([nH]c1=O)CCCC2`, under setting [1], the AC50 was 0.651 µM [rising, partial curve, poor fit].

For `O=C(CSc1ccc(C(F)(F)F)cc1[N+](=O)[O-])Nc1ccc2ccccc2c1`, the AC50 under setting [1] was 5.8 µM [rising, partial curve, poor fit].

On to `CCOc1ccc(-n2c(CCc3ccccc3)n[nH]c2=S)cc1`, for which the AC50 under setting [1] is 35.5 µM [rising, single point].

Turning to `O=c1c2cn[nH]c2nc(SCc2c(F)cccc2F)n1-c1ccc(Cl)cc1`, under setting [1], the AC50 is 22.4 µM [falling, single point].

In the case of `CC(=O)c1ccc(NC(=O)CN2CCN(c3ncccn3)CC2)cc1`, under setting [1], the AC50 is 29.1 µM [rising, single point].

`COc1ccc(CCNC(=S)NC2CCN(Cc3ccccc3)CC2)cc1OC`: the AC50 under setting [1] is 0.282 µM [falling, full curve, poor fit].

Take `Cc1oc(=O)cc(OCc2ccccc2)c1C`: under setting [1], the AC50 was 18.4 µM [rising, single point].

For `COc1ccc(/C=C/C(=O)c2sc(-c3ccccc3)nc2C)cc1`, the AC50 under setting [1] was 7.31 µM [rising, partial curve].

For `CSc1ncc(C(=O)Nc2ccc(C)cc2C)c(C)n1`, under setting [1], the AC50 was 5.01 µM [rising, full curve, poor fit].

As to `Cc1cc(C)c2c(N)c3ccccc3nc2n1`, under setting [1], the AC50 was 4.47 µM [falling, partial curve, poor fit].

For the compound `Cc1cc(NS(=O)(=O)c2ccc(NC(=O)/C=C/c3ccccc3Cl)cc2)no1`, under setting [1], the AC50 is 20 µM [falling, single point].

Regarding `CCC12CN3CCN(CC(C3)/C1=N\NC(=O)c1ccc(F)cc1)C2`, under setting [1], the AC50 is 0.316 µM [falling, partial curve, poor fit].

Regarding `O=C(NNc1nc(Nc2ccccc2)nc(N2CCOCC2)n1)Nc1ccc(Cl)cc1`, the AC50 under setting [1] was 5.62 µM [rising, partial curve].

Consider `COc1ccc(OCc2cc(C(=O)NCCN3CCCc4ccccc43)no2)c(Cl)c1`, for which the AC50 under setting [1] was 35.5 µM [falling, single point].

For the compound `Cc1n[nH]c(C)c1S(=O)(=O)N1CCCC(C(=O)Nc2ccc3c(c2)OCCO3)C1` (stereo unspecified), under setting [1], the AC50 is 4.61 µM [rising, partial curve, poor fit].

For `COc1cc(/C=N/NC(=S)Nc2cccc(C(=O)O)c2)ccc1O`, under setting [1], the AC50 is 1.46 µM [falling, full curve].

Regarding `COc1ccccc1NC(=O)COc1ccc(-c2nn(C)c(=O)c3ccccc23)cc1`, under setting [2], the AC50 was 10 µM [falling, partial curve].

In the case of `CC(C)C(=O)N1CCN(CCN2C(=O)c3cccc4cccc(c34)C2=O)CC1`, the AC50 under setting [1] was 1.58 µM [rising, full curve, poor fit].

On to `CCCn1c(=O)c2c(nc3n2CCCN3Cc2ccccc2)n(C)c1=O`, for which the AC50 under setting [1] was 11.2 µM [falling, single point].

Take `Cc1ccc2oc(=O)n(Cc3ccccc3OC(C)C)c2c1`: the AC50 under setting [1] is 16.4 µM [falling, single point].

On to `O=C(CNc1cccc(Cl)c1)c1ccc(Br)cc1`, for which the AC50 under setting [1] is 35.5 µM [rising, partial curve, poor fit].

As to `C/C(CCC1CC(C)OC1=O)=N\NC(N)=O` (stereo unspecified), under setting [1], the AC50 was 0.891 µM [rising, full curve, poor fit].

Consider `C/C(=N\NC(=O)c1nc(C)cc(C)n1)c1ccccc1`, for which the AC50 under setting [1] is 8.2 µM [falling, partial curve].

For the compound `O=[N+]([O-])c1ccc(-c2csc(Nc3ccccc3)[n+]2Cc2ccccc2)cc1`, the AC50 under setting [1] is 6.51 µM [rising, full curve, poor fit].

Take `COCC(C)n1c(C)cc(C(=O)CN2C(=O)NC(Cc3c[nH]c4ccccc34)C2=O)c1C` (stereo unspecified): the AC50 under setting [1] was 29.1 µM [rising, single point].

Consider `Cc1cc(Cl)ccc1OCc1nc(-c2ccc(O)cc2)n[nH]1`, for which the AC50 under setting [1] is 18.4 µM [falling, single point].

Consider `Cc1ccc(Cl)c(OC(=O)c2nn(C(C)C)c(=O)c3ccccc23)c1`, for which, under setting [1], the AC50 was 29.1 µM [rising, single point].

For `CN1C(=O)c2ccc(NC(=O)c3cccc(N4C(=O)CCC4=O)c3)cc2C1=O`, the AC50 under setting [1] was 20 µM [falling, partial curve, poor fit].

`COC(=O)c1ccc(NC(=O)Nc2ccc(C)cc2)cc1`: under setting [1], the AC50 was 2.31 µM [falling, partial curve].

Turning to `COc1ccccc1-c1sc2cc3c(cc2c1C#Cc1ccccn1)OCO3`, under setting [1], the AC50 is 29.1 µM [rising, single point].

As to `O=C(NCCN1CCOCC1)/C(=C\c1ccc(Br)cc1)NC(=O)c1cccs1`, the AC50 under setting [1] was 18.4 µM [falling, single point].

On to `O=C(NC1CCCCC1)C(c1ccc2ncccc2c1)N(Cc1ccc(F)cc1)C(=O)c1cccs1` (stereo unspecified), for which the AC50 under setting [1] was 13 µM [falling, partial curve, poor fit].

In the case of `CC(Oc1cccnc1[N+](=O)[O-])C(=O)N1CCc2ccccc21` (stereo unspecified), under setting [1], the AC50 was 32.6 µM [rising, partial curve, poor fit].

Consider `C#CCNC(=O)/C=C/c1ccc(OC)cc1`, for which, under setting [1], the AC50 is 18.4 µM [falling, single point].

As to `O=C(C[C@H]1C/C=C\C[C@@H](Cc2ccc(F)cc2)C(=O)O[C@@H](c2ccccc2)CNC1=O)N[C@@H](CO)Cc1ccccc1`, the AC50 under setting [2] was 29.1 µM [rising, partial curve, poor fit].

Regarding `Cc1ccc(C(=O)Nc2ccc(Oc3ccc(C(=O)O)c(C(=O)O)c3)cc2)cc1C`, the AC50 under setting [1] is 9.2 µM [falling, partial curve, poor fit].

Take `COc1ccc(N=Cc2c(O)c3ccccc3oc2=O)cc1`: under setting [1], the AC50 was 20.6 µM [falling, single point].

On to `C[C@@H](C(=O)N[C@@H](Cc1c[nH]c2ccccc12)C(=O)O)n1nnc2ccccc2c1=O`, for which the AC50 under setting [1] was 6.31 µM [rising, single point].

As to `O=C(COC(=O)c1cc[n+]([O-])cc1)Nc1ccc(F)c([N+](=O)[O-])c1`, the AC50 under setting [1] is 9.2 µM [falling, partial curve, poor fit].

For `CCOC(=O)c1sc(NC(=O)c2ccco2)nc1C`, the AC50 under setting [1] was 1.58 µM [falling, partial curve, poor fit].

In the case of `COC(=O)c1c(-n2c(C)cc(C=O)c2C)sc2c1CCCC2`, the AC50 under setting [1] is 2.82 µM [falling, full curve, poor fit].

Regarding `Cc1ccc(/C=C2\SC(=S)N(CCC(=O)Nc3cccnc3)C2=O)cc1`, under setting [1], the AC50 is 10 µM [falling, partial curve].

`CCOc1ccc(OCC)c(S(=O)(=O)NCc2ccccc2)c1`: under setting [1], the concentration at half-maximal activity (AC50) is 3.16 µM [rising, full curve, poor fit].

Consider `Cc1cc(=O)[nH]c2c(N=Nc3ccc(O)cc3)c(N)nn12`, for which the AC50 under setting [1] is 10 µM [falling, partial curve].

As to `CC1=CC(C)(C)N(C(=O)CSc2nnc(N)s2)c2ccccc21`, under setting [1], the AC50 is 0.82 µM [rising, full curve, poor fit].

Take `CC(C)(C)NNC(=S)Nc1cccc(F)c1`: the AC50 runs as follows: under setting [1], 35.5 µM [falling, single point]; under setting [2], 14.1 µM [falling, partial curve].

Consider `Cc1cccc(CSc2ccc(-c3ccco3)nn2)c1`, for which the AC50 under setting [1] is 1.03 µM [rising, full curve].

In the case of `Cc1nc2oc3ccc(Cl)cc3c(=O)c2cc1C(=O)O`, under setting [1], the AC50 was 20 µM [falling, single point].

Regarding `CCC(CC)CN1C(Nc2ccccc2)=NC[C@@H]1CC(C)C`, the AC50 under setting [1] was 35.5 µM [falling, single point].

On to `COc1cc(CN2CCC(n3nccc3NC(=O)c3ccccc3OC)CC2)ccc1F`, for which the AC50 under setting [1] was 35.5 µM [falling, single point].

Regarding `COc1cc(/C=N/NC(=O)C(=O)/C=C2\NC3(CCCC3)Cc3ccccc32)ccc1O`, the AC50 under setting [1] was 9.2 µM [rising, partial curve, poor fit].

As for `O=C(NN1CCOCC1)c1cc(S(=O)(=O)Nc2cccc(C(F)(F)F)c2)ccc1Cl`, the AC50 under setting [1] was 0.82 µM [rising, full curve, poor fit].

Regarding `COc1ccc(N(C(=O)c2cccnc2)S(=O)(=O)c2ccc(F)cc2)cc1`, under setting [1], the AC50 is 35.5 µM [falling, single point].

As to `O=C1N/C(=N\N=C\c2ccco2)SC1Cc1ccccc1[N+](=O)[O-]` (stereo unspecified), the AC50 under setting [1] was 11.2 µM [falling, partial curve, poor fit].

In the case of `COC(=O)c1sc(S(=O)(=O)N2CCN(CCO)CC2)c(C(=O)OC)c1C`, under setting [1], the AC50 was 35.5 µM [rising, single point].

`COc1ccc(NC(C)c2ccccc2)cc1` (stereo unspecified): under setting [1], the AC50 is 2.51 µM [rising, full curve, poor fit].

Regarding `Nc1nc(-c2ccc(Oc3ccccc3)cc2)cs1`, the AC50 under setting [1] is 0.447 µM [rising, full curve, poor fit].

On to `CCc1c(C)nc2[nH]nc(-c3ccccc3)n2c1=O`, for which the AC50 under setting [1] is 4.47 µM [falling, partial curve, poor fit].

With `C=CCNCCOCCOc1ccc(Cl)cc1C(C)(C)C`, under setting [1], the half-maximal activity concentration (AC50) was 29.1 µM [falling, single point].

As for `COc1cccc2c1OCC(C(=O)NCc1ccc(Cl)cc1Cl)=C2`, the AC50 under setting [1] is 29.1 µM [falling, single point].

As for `CCN1CCN(c2ccc(S(=O)(=O)N3CCCCC3)cc2NC(=O)/C=C/c2ccc(OC)c(OC)c2)CC1`, the AC50 under setting [1] was 6.51 µM [rising, single point].

For `O=C(Nc1cccs1)Nc1ccccc1Br`, under setting [1], the AC50 was 3.98 µM [falling, full curve, poor fit].

Consider `Cc1ccc(CCC(=O)Nc2ccccc2C(=O)O)o1`, for which the concentration at half-maximal activity (AC50) under setting [1] is 7.08 µM [falling, partial curve, poor fit].

With `N#CCSc1nc2ccccc2c2nc3ccccc3n12`, the AC50 under setting [1] was 0.92 µM [falling, full curve].
